Test results: patent publication US20020127541A1
Results are given in words; binding and its absence hold for the method and conditions named. In cells and extracts the contact can be indirect. Some results given as binding are weak or reduced against the parent protein; the word gives no strength.

Chains of the proteins cited; added tags and fusions are not shown. Residues count along the entry.
UniProt P35222, residues 2-781: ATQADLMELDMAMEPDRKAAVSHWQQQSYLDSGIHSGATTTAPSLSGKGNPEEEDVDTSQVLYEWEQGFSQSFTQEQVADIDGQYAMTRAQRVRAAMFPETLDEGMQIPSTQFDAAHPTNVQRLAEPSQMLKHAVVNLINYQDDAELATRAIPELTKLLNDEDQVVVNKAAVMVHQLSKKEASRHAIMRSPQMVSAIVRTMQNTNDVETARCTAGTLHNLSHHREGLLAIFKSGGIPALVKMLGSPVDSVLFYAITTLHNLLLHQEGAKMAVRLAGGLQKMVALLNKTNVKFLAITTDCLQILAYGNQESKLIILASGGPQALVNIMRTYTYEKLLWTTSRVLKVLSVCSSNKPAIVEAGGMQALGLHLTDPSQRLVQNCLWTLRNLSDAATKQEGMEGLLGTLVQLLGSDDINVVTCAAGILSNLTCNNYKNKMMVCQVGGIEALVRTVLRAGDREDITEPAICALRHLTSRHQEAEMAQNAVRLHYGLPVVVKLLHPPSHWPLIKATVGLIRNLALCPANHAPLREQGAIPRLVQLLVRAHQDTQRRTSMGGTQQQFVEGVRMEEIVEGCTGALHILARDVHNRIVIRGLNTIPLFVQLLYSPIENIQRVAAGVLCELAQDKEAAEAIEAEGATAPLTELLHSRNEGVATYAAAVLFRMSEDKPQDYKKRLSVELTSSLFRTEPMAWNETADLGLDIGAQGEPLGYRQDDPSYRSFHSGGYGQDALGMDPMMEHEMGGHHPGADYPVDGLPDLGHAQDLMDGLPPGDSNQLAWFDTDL

Molecular target: wild type PS2 (human) (UniProt P49810)
Assay: co-immunoprecipitation, Western blot

## endogenous β-catenin (from UniProt P35222 2-781)
  binding: binds
